Results reported in article PMC11438959.
These are yes or no findings as the source states them, for the method shown. Binding seen in cells or lysates may run through a third protein. Some results given as binding are weak or reduced against the parent protein; the word gives no strength. Each block holds one molecule with its values, some of them ahead of it.

Amino acid sequences for entries named in this document (tags omitted). Residues count along the entry.
UniProt Q02248: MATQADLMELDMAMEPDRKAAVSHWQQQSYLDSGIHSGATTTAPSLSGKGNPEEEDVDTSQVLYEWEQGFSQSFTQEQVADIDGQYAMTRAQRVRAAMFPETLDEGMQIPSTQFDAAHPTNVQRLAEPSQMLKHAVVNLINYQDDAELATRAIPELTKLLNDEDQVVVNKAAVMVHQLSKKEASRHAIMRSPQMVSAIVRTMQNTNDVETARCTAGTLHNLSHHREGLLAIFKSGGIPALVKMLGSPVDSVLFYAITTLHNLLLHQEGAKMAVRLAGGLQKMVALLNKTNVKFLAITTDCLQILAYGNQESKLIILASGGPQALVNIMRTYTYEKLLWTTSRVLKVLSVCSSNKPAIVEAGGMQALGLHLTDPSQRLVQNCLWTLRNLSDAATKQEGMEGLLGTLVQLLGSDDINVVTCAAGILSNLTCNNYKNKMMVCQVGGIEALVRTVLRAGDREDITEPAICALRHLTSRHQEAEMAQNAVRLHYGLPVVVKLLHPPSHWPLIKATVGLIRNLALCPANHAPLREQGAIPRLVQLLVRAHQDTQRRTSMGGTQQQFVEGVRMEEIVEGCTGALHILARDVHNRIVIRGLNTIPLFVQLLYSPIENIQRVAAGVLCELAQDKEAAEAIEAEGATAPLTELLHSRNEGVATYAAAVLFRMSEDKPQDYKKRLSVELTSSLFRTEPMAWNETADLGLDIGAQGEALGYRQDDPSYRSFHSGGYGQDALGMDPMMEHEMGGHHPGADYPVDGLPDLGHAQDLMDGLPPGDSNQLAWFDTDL
UniProt Q61501: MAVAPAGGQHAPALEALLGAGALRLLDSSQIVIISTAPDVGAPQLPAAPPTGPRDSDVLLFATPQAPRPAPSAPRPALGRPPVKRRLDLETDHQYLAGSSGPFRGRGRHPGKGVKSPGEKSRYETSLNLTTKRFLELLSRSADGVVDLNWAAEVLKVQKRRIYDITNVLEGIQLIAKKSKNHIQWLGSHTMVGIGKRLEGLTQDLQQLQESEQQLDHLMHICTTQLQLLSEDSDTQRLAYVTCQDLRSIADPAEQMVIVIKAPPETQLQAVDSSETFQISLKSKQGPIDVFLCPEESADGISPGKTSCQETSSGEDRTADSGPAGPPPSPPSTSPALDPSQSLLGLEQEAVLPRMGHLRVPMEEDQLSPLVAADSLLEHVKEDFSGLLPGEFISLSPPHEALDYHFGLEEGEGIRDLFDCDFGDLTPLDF
UniProt P48972: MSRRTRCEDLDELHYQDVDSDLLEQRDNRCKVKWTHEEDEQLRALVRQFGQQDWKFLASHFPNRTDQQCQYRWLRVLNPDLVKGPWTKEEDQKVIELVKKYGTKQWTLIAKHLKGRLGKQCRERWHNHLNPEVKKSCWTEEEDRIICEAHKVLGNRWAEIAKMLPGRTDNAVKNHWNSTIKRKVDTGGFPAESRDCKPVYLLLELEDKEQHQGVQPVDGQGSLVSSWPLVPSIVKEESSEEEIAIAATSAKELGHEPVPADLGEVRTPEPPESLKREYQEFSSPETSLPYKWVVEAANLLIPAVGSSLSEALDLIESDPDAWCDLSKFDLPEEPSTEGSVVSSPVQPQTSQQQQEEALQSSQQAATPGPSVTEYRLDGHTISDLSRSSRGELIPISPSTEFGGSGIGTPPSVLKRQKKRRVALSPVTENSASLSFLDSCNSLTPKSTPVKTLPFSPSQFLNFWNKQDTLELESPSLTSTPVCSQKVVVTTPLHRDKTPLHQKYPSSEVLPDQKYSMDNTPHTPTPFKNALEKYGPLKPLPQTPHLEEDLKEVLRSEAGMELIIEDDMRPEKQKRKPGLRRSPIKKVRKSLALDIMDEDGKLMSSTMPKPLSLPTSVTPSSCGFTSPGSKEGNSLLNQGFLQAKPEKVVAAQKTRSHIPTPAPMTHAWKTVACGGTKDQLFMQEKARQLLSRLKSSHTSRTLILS
UniProt P31266: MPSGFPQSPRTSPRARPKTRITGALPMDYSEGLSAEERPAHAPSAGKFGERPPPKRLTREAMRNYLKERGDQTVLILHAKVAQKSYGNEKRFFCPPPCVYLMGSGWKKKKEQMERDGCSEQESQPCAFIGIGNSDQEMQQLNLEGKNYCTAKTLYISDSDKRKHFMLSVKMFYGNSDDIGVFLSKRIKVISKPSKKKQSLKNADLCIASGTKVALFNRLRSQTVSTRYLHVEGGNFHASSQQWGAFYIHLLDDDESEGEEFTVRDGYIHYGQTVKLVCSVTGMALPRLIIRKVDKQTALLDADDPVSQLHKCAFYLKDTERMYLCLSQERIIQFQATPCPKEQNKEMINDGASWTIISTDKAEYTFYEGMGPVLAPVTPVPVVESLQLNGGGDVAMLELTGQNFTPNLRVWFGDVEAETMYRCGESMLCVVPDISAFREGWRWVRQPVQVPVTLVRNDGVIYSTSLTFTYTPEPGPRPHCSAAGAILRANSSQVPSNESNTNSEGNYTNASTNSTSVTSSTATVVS
UniProt Q01705, residues 19-2531: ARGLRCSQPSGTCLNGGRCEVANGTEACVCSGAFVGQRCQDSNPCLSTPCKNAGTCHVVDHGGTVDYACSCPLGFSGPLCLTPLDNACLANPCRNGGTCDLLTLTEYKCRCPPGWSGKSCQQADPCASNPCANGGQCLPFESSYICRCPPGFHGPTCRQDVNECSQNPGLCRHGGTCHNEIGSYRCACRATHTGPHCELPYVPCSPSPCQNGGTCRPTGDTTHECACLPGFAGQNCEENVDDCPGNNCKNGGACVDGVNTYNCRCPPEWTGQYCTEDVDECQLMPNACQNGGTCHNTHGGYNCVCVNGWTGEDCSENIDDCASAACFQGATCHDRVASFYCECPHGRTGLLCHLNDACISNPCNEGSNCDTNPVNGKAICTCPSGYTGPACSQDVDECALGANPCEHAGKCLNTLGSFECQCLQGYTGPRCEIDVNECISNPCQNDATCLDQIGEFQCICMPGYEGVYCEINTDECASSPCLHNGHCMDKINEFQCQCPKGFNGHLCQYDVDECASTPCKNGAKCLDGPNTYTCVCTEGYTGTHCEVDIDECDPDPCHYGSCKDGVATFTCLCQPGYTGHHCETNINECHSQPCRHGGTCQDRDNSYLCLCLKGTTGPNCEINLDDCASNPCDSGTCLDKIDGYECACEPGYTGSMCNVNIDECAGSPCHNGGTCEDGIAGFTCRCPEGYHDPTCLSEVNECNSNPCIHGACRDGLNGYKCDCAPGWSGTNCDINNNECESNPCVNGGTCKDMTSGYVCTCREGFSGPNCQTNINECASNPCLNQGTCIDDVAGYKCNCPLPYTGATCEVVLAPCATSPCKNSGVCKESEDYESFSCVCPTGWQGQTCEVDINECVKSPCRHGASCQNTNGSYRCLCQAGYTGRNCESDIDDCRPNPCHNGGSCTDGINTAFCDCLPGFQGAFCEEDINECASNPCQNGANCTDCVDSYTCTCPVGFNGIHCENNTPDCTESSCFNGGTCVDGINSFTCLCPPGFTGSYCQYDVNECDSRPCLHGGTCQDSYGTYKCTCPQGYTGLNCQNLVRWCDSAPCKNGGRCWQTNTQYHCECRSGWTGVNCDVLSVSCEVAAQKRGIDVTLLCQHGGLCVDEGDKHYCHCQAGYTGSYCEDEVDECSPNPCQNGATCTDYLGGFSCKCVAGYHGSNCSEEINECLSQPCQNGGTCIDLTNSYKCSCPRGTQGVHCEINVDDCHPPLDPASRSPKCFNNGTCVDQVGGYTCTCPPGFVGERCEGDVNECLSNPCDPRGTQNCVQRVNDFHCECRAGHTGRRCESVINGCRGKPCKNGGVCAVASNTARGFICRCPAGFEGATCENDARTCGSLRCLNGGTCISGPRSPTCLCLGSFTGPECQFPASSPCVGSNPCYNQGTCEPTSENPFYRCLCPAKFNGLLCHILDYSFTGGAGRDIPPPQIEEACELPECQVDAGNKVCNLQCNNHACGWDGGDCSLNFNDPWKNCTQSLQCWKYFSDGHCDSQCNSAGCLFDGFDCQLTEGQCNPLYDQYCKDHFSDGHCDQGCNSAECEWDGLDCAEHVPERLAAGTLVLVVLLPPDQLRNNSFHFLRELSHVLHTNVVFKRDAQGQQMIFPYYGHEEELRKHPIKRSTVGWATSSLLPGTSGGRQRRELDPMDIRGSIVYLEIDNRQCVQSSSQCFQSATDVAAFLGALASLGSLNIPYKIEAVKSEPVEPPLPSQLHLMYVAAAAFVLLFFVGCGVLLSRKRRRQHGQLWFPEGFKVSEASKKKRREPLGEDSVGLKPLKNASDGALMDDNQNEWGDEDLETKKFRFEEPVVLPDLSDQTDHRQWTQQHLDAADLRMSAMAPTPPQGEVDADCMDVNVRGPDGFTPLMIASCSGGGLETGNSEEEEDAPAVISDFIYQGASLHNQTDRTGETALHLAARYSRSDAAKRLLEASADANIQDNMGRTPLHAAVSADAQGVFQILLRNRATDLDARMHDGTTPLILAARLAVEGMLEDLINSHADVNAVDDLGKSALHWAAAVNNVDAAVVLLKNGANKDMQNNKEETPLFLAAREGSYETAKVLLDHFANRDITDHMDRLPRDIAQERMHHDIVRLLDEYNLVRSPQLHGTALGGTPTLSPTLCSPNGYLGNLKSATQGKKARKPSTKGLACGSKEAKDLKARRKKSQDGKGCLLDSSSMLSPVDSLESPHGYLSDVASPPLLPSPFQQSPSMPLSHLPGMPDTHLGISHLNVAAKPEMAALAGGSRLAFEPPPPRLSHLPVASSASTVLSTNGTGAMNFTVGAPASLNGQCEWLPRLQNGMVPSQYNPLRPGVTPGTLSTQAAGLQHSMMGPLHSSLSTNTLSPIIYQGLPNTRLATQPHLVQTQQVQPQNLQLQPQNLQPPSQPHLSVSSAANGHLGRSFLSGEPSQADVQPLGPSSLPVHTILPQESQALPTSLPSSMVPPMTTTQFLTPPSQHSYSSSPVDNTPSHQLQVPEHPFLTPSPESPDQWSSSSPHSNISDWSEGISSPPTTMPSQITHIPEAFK

Assays:
Assay in all cases: co-IP; endogenous proteins in lysates (mild RIPA buffer, proteinase inhibitors) of WT, p21 null, G2DKO and p21G2TKO MEFs; pre-cleared, then incubated with Protein A/G Magnetic Beads and anti-Lin9, anti-E2F1 or anti-β-Catenin (non-phosphorylated (active)) antibody at 4 °C overnight; precipitates analysed by Western blotting
[1] = biological target: β-Catenin (mouse (endogenous in MEFs)) (UniProt Q02248)
[2] = biological target: T1, Lin9 (mouse (endogenous in MEFs)) (UniProt Q8C735)
T1 sequence: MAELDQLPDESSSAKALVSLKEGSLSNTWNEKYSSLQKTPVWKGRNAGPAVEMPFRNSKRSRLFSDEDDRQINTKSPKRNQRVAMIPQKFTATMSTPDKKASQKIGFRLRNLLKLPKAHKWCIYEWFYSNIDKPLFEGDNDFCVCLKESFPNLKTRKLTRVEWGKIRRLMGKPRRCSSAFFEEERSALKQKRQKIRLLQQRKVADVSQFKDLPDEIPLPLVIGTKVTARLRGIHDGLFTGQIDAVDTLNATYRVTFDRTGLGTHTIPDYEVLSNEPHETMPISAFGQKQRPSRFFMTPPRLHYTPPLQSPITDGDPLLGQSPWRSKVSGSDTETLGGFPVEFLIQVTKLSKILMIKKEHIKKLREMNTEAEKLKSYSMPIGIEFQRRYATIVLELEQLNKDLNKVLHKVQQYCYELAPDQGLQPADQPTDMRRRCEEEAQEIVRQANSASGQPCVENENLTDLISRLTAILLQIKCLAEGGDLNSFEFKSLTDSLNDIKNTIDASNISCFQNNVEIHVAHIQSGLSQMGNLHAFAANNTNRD

[3] = biological target: E2F1 (mouse (endogenous in MEFs)) (UniProt Q61501)

Molecule: B-Myb (from UniProt P48972 1-704)
binding [2]: binds

B1: p107 (protein, UniProt Q64701 1-1063)
chain: MFEDEPHAEGAAAVAAAREALQALCQELNLDEGSAAEALDDFTAIRGNYSLEGEVIHWLACSLYVACRKSIIPTVGKGVMEGNCVSLTRILRSAKLSLIQFFSKMKKWMDMSNLPQEFRERIERLERNFEVSTVIFKKFEPIFLDIFQNPYEEPPKLPRSRKQRRIPCSVKDLFNFCWTLFVYTKGNFRMIGDDLVNSYHLLLCCLDLIFANAIMCPNRRDLLNPSFKGLPSDFHAPDFKAAEEPPCIIAVLCDLHDGLLVEAKGIKEHYFKPYISKLFDKKILKGECLLDLSSFTDNSKAVNKEYEEYVLTVGDFDERIFLGADAEEEIGTPRKFTADTPFGKLTSQASVECNLQQHFEKKRSFAPSTPLTGRRYLQEKEAVTTPVASATQSVSRLQSIVAGLKSAPSEQLLNIFESCMRNPMGNIIKIVKGIGETFCQHYTQSTDKQPGSHIDFAVNRLKLAEILYYKILETIMVQETRRLHGMDMSVLLEQDIFHKSLMACCLEIVLFAYSSPRTFPWIIEVLDLQPFYFYKVIEVVIRSEEGLSRDMVKHLNSIEEQILESLAWTNNSALWEALHASANRVPSCEEVIFPNNFEIGNGGNVQGHLPMMPMSPIIHPRVKEVRTDSGSLRQDMQPLSPISVHERYSSPAAGSAKRRLFGDDPPKDTLMDKIMAEGTKLKIAPSSVTAESLSISPGQALLTMATTTVTGTTGRKVTVPLHGIANDAGEITLVPISMNPTQESTAESPVSLTAQSLIGTSPKQTHLTKAQDAHLTGVSKPKRTGSLALFYRKVYHLASVRLRDLCLKLDVSNELRRKIWTCFEFTLVHCPDLMKDRHLDQLLLCAFYIMAKVTKEERTFQEIMKSYRNQPQANSHVYRSVLLKSIPGGVVVYNGDCEMTDGDIEDATKTPNCSSEPVKEERGDLIKFYNTVYVGRVKSFALKYDLSNQDHIMDAPPLSPFPHIKQQPGSPRRISQQHSLYVSPHKNGAGLTPRSALLYKFNGSPSKSLKDINNMIRQGEQKTKKRVIAISGDADSPAKRLCQENDDVLLKRLQDVVSERANH
binding [3]: binds

B3: p130 (protein, UniProt Q64700 1-1135)
chain: MASGGNQSPPPPPAAAASSEEEEEDGDAADRAQPAGSPSHQIQQRFEELCSRLNMDEAARAEAWSSYRSMSESYTLEGNDLHWLACALYVACRKSVPTVSKGTAEGNYVSLTRILRCSEQSLIEFFNKMKKWEDMANLPPHFRERTERLERNFTVSAVIFKKYEPIFQDIFKYPQEEQPRQQRGRKQRRQPCTTSEIFHFCWVLFIYAKGNFPMISDDLVNSYHLLLCALDLVYGNALQCSNRKELVNPNFKGLSEDCHPKDSKASSDPPCVIEKLCSLHDGLVLEAKGIKEHFWKPYIRKLFEKKLLKGKEENLTGFLEPGNFGESFKAVNKAYEEYVLAAGNLDERVFLGEDAEEEVGTLSRCLSAASGTESAERTQMRDILQQHLDKSKALRVCTPLTGVRYVQENSPCVTPVSTAAHSLSRLHTMLSGLRNAPSEKLERILRSCSRDPTQAIADRLKEMYEIYSQHFQPDENFSNCAKEIANKHFRFAEMLYYKVLESVIEQEQKRLGDMDLSGVLEHDAFHRSLLACCLEVVAFSHKPPGNFPFIAEIFDVPHYHFYKVIEVFIRAEDGLCREVVKHLNQIEEQILDHLAWKTKSPLWDRIRDNENRVPTCEEVMPPQNLERTDEIYIAGSPLTPRRVGEVRADAGGLGRSITSPTTLYDRYSSPTVSTTRRRLFENDSPSEGSTSGRIPPQPLVNAVPVQNVPGETVSVTPVPGQTLVTMATATVTANNGQTVTIPVQGIANENGGITFFPVQVNVGGQAQAVAGSIQPLSAQALAGSLSSQQVTGTTLQVPGPVAIQQISPGGQQQNPGQPLTSSSIRPRKTSSLALFFRKVYYLAGVRLRDLCIKLDISDELRKKIWTCFEFSIIQCTELMMDRHLDQLLMCAIYVMAKVTKEDRSFQNIMRCYRTQPQARSQVYRSVLIKGKRRNSGSSESRSHQNSPTELNTDRASRDSSPVMRSNSTLPVPQPSSAPPTPTRLTGASSDVEEEERGDLIQFYNNIYRKQIQAFAMKYSQANAQTDTPPLSPYPFVRTGSPRRVQLSQSHPIYISPHNNEAMPSPREKIFYYFSNSPSKRLREINSMIRTGETPTKKRGILLDDGSESPAKRICPENHSALLRRLQDVANDRGSQ
binding [2]: binds

Other lines, results leading:

binding [1]: binds
Molecule: Rbpj (from UniProt P31266 1-526)

binding [1]: binds
Molecule: Notch1 (from UniProt Q01705 19-2531)

binding [3]: binds
B2: Rb (protein, UniProt P13405 1-921)
chain: MPPKAPRRAAAAEPPPPPPPPPREDDPAQDSGPEELPLARLEFEEIEEPEFIALCQKLKVPDHVRERAWLTWEKVSSVDGILEGYIQKKKELWGICIFIAAVDLDEMPFTFTELQKSIETSVYKFFDLLKEIDTSTKVDNAMSRLLKKYNVLCALYSKLERTCELIYLTQPSSALSTEINSMLVLKISWITFLLAKGEVLQMEDDLVISFQLMLCVVDYFIKFSPPALLREPYKTAAIPINGSPRTPRRGQNRSARIAKQLENDTRIIEVLCKEHECNIDEVKNVYFKNFIPFINSLGIVSSNGLPEVESLSKRYEEVYLKNKDLDARLFLDHDKTLQTDPIDSFETERTPRKNNPDEEANVVTPHTPVRTVMNTIQQLMVILNSASDQPSENLISYFNNCTVNPKENILKRVKDVGHIFKEKFANAVGQGCVDIGVQRYKLGVRLYYRVMESMLKSEEERLSIQNFSKLLNDNIFHMSLLACALEVVMATYSRSTLQHLDSGTDLSFPWILNVLNLKAFDFYKVIESFIKVEANLTREMIKHLERCEHRIMESLAWLSDSPLFDLIKQSKDGEGPDNLEPACPLSLPLQGNHTAADMYLSPLRSPKKRTSTTRVNSAANTETQAASAFHTQKPLKSTSLALFYKKVYRLAYLRLNTLCARLLSDHPELEHIIWTLFQHTLQNEYELMRDRHLDQIMMCSMYGICKVKNIDLKFKIIVTAYKDLPHAAQETFKRVLIREEEFDSIIVFYNSVFMQRLKTNILQYASTRPPTLSPIPHIPRSPYKFSSSPLRIPGGNIYISPLKSPYKISEGLPTPTKMTPRSRILVSIGESFGTSEKFQKINQMVCNSDRVLKRSAEGGNPPKPLKKLRFDIEGADEADGSKHLPAESKFQQKLAEMTSTRTRMQKQRMNESKDVSNKEEK
